Assay results as given in article PMC9772183.
No constants are given. Whether binding was seen depends on the method and setting. Sequences can lack the tags named with a protein.

Target: Ash-GABARAP, O95166
Test: Fluoppi; Ash-tagged LC3 or GABARAP co-expressed with hAG-tagged CDK5RAP3 in HEK293T; fluorescent foci in living cells
Conditions: remark: other sources report otherwise

B1: hAG-tagged CDK5RAP3 LC3-interacting region-mutant (CDK5RAP3^3WA), Q96JB5 1-506 (protein)
chain: MEDHQHVPIDIQTSKLLDWLVDRRHCSLKWQSLVLTIREKINAAIQDMPESEEIAQLLSGSYIHYFHCLRILDLLKGTEASTKNIFGRYSSQRMKDWQEIIALYEKDNTYLVELSSLLVRNVNYEIPSLKKQIAKCQQLQQEYSRKEEECQAGAAEMREQFYHSCKQYGITGENVRGELLALVKDLPSQLAEIGAAAQQSLGEAIDVYQASVGFVCESPTEQVLPMLRFVQKRGNSTVYEWRTGTEPSVVERPHLEELPEQVAEDAIDAGDFGVEAVSEGTDSGISAEAAGIDAGIFPESDSKDPGGDGIDAGDDAVALQITVLEAGTQAPEGVARGPDALTLLEYTETRNQFLDELMELEIFLAQRAVELSEEADVLSVSQFQLAPAILQGQTKEKMVTMVSVLEDLIGKLTSLQLQHLFMILASPRYVDRVTEFLQQKLKQSQLLALKKELMVQKQQEALEEQAALEPKLDLLLEKTKELQKLIEADISKRYSGRPVNLMGTSL
binding: no binding
